Reference: PMC12040169 (PLOS Biology, 2025)
The list shows a part of the results.

Tested on: T1, CTL2-GFP (C. trachomatis L2/434/Bu, GFP-expressing)
T1 construct: L2/434/Bu, GFP-expressing
Design: species or system HeLa; Intracellular C. trachomatis growth in HeLa cells, bulk GFP fluorescence relative to DMSO
Details: bulk GFP, single well; 28.5 h, 10 µM; inhibitor

SMILES | % of control remaining
O=C(O)c1ccc(-c2ccc(/C=C3/NC(=O)N(c4ccc(Cl)cc4)C3=O)o2)cc1 [CBK077970] | 87.3138%
Cn1ccc(C(=O)NC(Cc2ccsc2)c2ccccn2)cc1=O (stereo not shown) [CBK285273] | 104.838%
N#Cc1ccc(C(=O)N2CCC3(CC2)NC(=O)c2cc(-c4ccoc4)ccc2O3)cc1 [CBK115852] | 139.501%
O=C(c1ccc(F)cc1)N1CCC(O)(c2ccccn2)CC1 [CBK283669] | 101.973%
Cn1nc(CC(=O)Nc2ccccc2C(=O)O)c2ccccc2c1=O [CBK286558] | 110.166%
O=C(Cn1cnc2c(cnn2-c2cccc(Cl)c2)c1=O)N1CCCCC1 [CBK287691] | 144.482%
COc1ccc([C@@]23CC[C@@H](NC(=O)Nc4ccc(Cl)c(C(F)(F)F)c4)C[C@@H]2N(C)CC3)cc1OC [CBK038224C] | 133.554%
O=C(c1cccnc1)N1C2CCC1CC(c1ccc(F)cc1)C2 (stereo not shown) [CBK283762] | 111.349%
COc1ccc([C@@]23CC[C@@H](NC(=O)Nc4ccccc4C#N)C[C@@H]2N(C)CC3)cc1OC [CBK047540T] | 59.315%
CCCc1cc(CNC(=O)c2cnn(-c3ccc(F)cc3)c2)on1 [CBK282463] | 140.635%
CC(C)CCOc1nccnc1-c1ccc2c(c1)OCO2 [CBK106711] | 120.044%
O=C(O)c1cccc(Sc2cc(N3CCCC3)ncn2)c1 [CBK093586] | 107.987%
O=C1CC(C(=O)Nc2cccc(C(=O)O)c2)C(c2ccccc2)O1 (stereo not shown) [CBK293968] | 170.581%
NC(=O)CN1CCC(Oc2cncc(OCC3COc4ccccc4O3)n2)C1 (stereo not shown) [CBK084372] | 107.674%
CC(C)c1nccn1CCCNC(=O)N1CCCC(c2ccncn2)C1 (stereo not shown) [CBK307448] | 153.053%
O=C(N[C@H]1C[C@H]2C(=O)NC[C@@H](CCC(=O)N3CCCCC3)N2C1)c1cccs1 [CBK289010] | 129.442%
CCN(CC)CCN1C(=O)C(O)=C(C(=O)c2ccc3c(c2)OCO3)C1c1cccnc1 (stereo not shown) [CBK266465] | 152.497%
c1ccc(Cn2c(-c3ccccc3)c(-c3ccccc3)c3c2ncn2nc(-c4cccnc4)nc32)cc1 [CBK265359] | 110.802%
CCOC(=O)c1cc(CC)sc1NC(=O)c1cc2ccccc2o1 [CBK267596] | 131.497%
O=c1cc(CO)oc(CN2CCSCC2)c1O [CBK288404] | 133.536%
O=S(=O)(NCC1CCCO1)c1cccs1 (stereo not shown) [CBK044263] | 85.4326%
COc1ccc(C(=O)Nc2ccc3oc(-c4cccc(C)c4)nc3c2)cc1Br [CBK261944] | 100%
O=C(O)CCCn1cc(NC(=O)c2cccs2)cn1 [CBK270122] | 138.63%
O=C(C1=C(O)C(=O)N(CCCN2CCOCC2)C1c1cccnc1)c1ccco1 (stereo not shown) [CBK264528] | 132.7%
CCN1CCCC1CNC(=O)C1(O)c2ccccc2NC(=O)N1c1ccccc1 (stereo not shown) [CBK288554] | 102.134%
Cn1ccc(C2=C(N)C(C#N)C3=C(CC(C)(C)CC3=O)O2)c1 (stereo not shown) [CBK022168] | 156.598%
COc1nnc(-c2ccc(C)cc2)c2ccccc12 [CBK263466] | 94.2289%

SMILES | % of control remaining
CCCn1c(C)nnc1CN(CC1CCCO1)C1CCC(C)CC1 (stereo not shown) [CBK304485] | 122.392%
Cc1cc(C)cc(NC(=O)C2C3C=CC(O3)C2C(=O)O)c1 (stereo not shown) [CBK262642] | 115.172%
O=C(CCN1C(=O)/C(=C\c2cccs2)SC1=S)Nc1cc(Cl)ccc1O [CBK263643] | 116.627%
CCC1SC2=NC(C)=C(C(=O)OCc3ccccc3)C(c3ccccc3)N2C1=O (stereo not shown) [CBK293960] | 162.269%
CCN(Cc1ccc(OC)c(OC)c1)C(=O)CSc1nc(CC(=O)O)cs1 [CBK296643] | 94.9795%
Cc1ccc(N(CC(=O)O)S(C)(=O)=O)cc1C [CBK286978] | 135.086%
Cn1c(SCC(=O)Nc2cccc(C(=O)O)c2)nnc1-c1ccccc1 [CBK300479] | 136.292%
O=C(C1CC1)N1C[C@H]2CCCN(S(=O)(=O)c3cccs3)[C@H]2C1 [CBK282255] | 173.566%
CCN1CC(C(=O)Nc2nc3c(s2)CCCCCC3)CC1=O (stereo not shown) [CBK281526] | 149.594%
O=C(Nc1snnc1-c1ccc(Cl)cc1)c1ccc(OC(F)(F)F)cc1 [CBK153247] | 1.735%
CCc1cc(C(=O)NC(Cn2ccnc2)C(C)(C)C)cc(=O)[nH]1 (stereo not shown) [CBK304410] | 155.177%
OCCCNc1nccnc1-c1cccc(F)c1 [CBK088976] | 197.199%
COc1cc(C(C)c2cc3c(cc2OCC(=O)O)OCO3)cc(OC)c1OC (stereo not shown) [CBK200109] | 110.802%
CCNC(=O)N1CC2(CCN(CCOc3ccc(OC)cc3)CC2)c2ccccc21 [CBK144600T] | 69.5214%
Cn1cc(CN2CCC(c3cncc(-c4cccc(C(F)(F)F)c4)n3)CC2)cn1 [CBK286150] | 126.428%
CC(=O)Nc1ccc(-c2nc3c4ccccc4c4ccc(I)cc4c3[nH]2)cc1 [CBK262667] | 124.478%
O=C(Nc1ccncc1)OCCNC(=O)c1ccncc1 [CBK262150] | 100%
CC(=O)N/N=C(\C)c1ccc(-n2cnnn2)cc1 [CBK261252] | 100%
O=C(CO)N1CC2(CCN(CCCn3c(=O)[nH]c4ccccc43)CC2)c2ccccc21 [CBK131506] | 101.731%
COc1ccc(CC(=O)Nc2ccc3n(c2=O)C[C@H]2C[C@@H]3CN(C(C)=O)C2)cc1 [CBK289203] | 137.6%
CCN(C)Cc1cccc(CNc2ncnc3c2cnn3CCC#N)c1 [CBK305959] | 143.375%
OC(CNCC1COc2ccccc2O1)C(F)(F)F (stereo not shown) [CBK074834] | 99.3456%
Cc1nn(C)cc1C(C)NC(=O)C1CC2C=CC1C21CC1 (stereo not shown) [CBK282088] | 125.163%
COc1ccc(Br)c(C(=O)Nc2cc(N3CCNCC3)c3occc3c2)c1 [CBK061757C] | 102.326%
CC(=O)NC(NC(=S)Nc1sc2c(c1C#N)CCCC2)C(Cl)(Cl)Cl (stereo not shown) [CBK261053] | 110.048%
O=C(Oc1ccc(-n2ccnc2)cc1)c1ccc(-c2ccccc2)cc1 [CBK095145] | 100%
c1nncn1/N=C1/CCCc2nonc21 [CBK261065] | 105.474%

Grouped by structure, those above with bromine (2)
SMILES | % of control remaining
COc1ccc(C(=O)Nc2ccc3oc(-c4cccc(C)c4)nc3c2)cc1Br [CBK261944] | 100%
COc1ccc(Br)c(C(=O)Nc2cc(N3CCNCC3)c3occc3c2)c1 [CBK061757C] | 102.326%

Quoted from the entries so far (3 entries):
SMILES | % of control remaining
O=C(O)c1cccc(Sc2cc(N3CCCC3)ncn2)c1 [CBK093586] | 107.987%
O=C1CC(C(=O)Nc2cccc(C(=O)O)c2)C(c2ccccc2)O1 (stereo not shown) [CBK293968] | 170.581%
NC(=O)CN1CCC(Oc2cncc(OCC3COc4ccccc4O3)n2)C1 (stereo not shown) [CBK084372] | 107.674%

Following part.

SMILES | % of control remaining
O=C(Nc1ccc(Cc2ccc(NC(=O)c3ccccc3F)c(O)c2)cc1O)c1ccccc1F [CBK268366] | 138.883%
CC(Oc1ccccc1)C(=O)Nc1c[nH]c(=O)[nH]c1=O (stereo not shown) [CBK266524] | 129.7%
O=S(=O)(Nc1ccccn1)N1CCOCC1 [CBK269391] | 141.649%
Cc1cc(C(=O)O)cc(S(=O)(=O)N2CCOCC2)c1C [CBK264497] | 133.401%
O=C(O)CC1(CC(=O)N2CC[C@H]3NC(=O)N(c4ccc(F)cc4)C(=O)[C@H]32)CCCC1 [CBK289327] | 119.919%
O=C(CN1CCCCCC1)Nc1sc2c(c1C(=O)Nc1ccc(Br)cc1)CCC2 [CBK265076] | 91.6441%
CNc1ncnc2c1ncn2C1CC(O)C(CO)O1 (stereo not shown) [CBK201308] | 186.255%
COc1cccc2ncn(CCc3n[nH]c(N)n3)c(=O)c12 [CBK307301] | 157.914%
Cc1nc(C(Cc2ccsc2)NC(=O)c2cnn(C)c2)sc1C (stereo not shown) [CBK284779] | 81.2245%
COc1ccc(C(N2CCOCC2)N2CCOCC2)cc1 [CBK261002] | 112.27%
COCCSc1nnc(NS(=O)(=O)Cc2ccccc2)s1 [CBK267535] | 140.42%
COc1cc(OC)nc(CN2CCOC3(CCN(C(=O)OCc4ccccc4)CC3)C2)n1 [CBK161101T] | 123.47%
Cc1ccc(S(=O)(=O)Nc2ccc3[nH]ccc3c2)cc1 [CBK153519] | 73.9904%
O=C1CC(c2cccnc2)c2sc(N3CCOCC3)nc2N1 (stereo not shown) [CBK287927] | 142.265%
COc1cccc(CSC2=C(C#N)C(c3cccs3)C(C(=O)Nc3ccccc3)=C(C)N2)c1 (stereo not shown) [CBK267458] | 135.34%
COc1cc(S(=O)(=O)Oc2ccc(OCc3ccccc3)cc2)ccc1Cl [CBK264132] | 109.108%
O=S(=O)(c1ccccc1)N1CCC(c2cc3ncccc3[nH]2)CC1 [CBK283397] | 96.8431%
CCC(CNC(=O)c1cc(-c2ccco2)nc2c(C(N)=O)ncn12)c1ccccc1 (stereo not shown) [CBK297779] | 171.718%
CC(=O)N1CCc2cc(NC(=O)c3cc4cc(C)ccc4o3)ccc21 [CBK281470] | 132.406%
O=C(Nc1ccccc1)Nc1nc(=O)n(-c2ccccc2)s1 [CBK070710] | 106.208%
COc1ccc(CN2CC(C(=O)O)C2)cc1Cn1cncn1 [CBK307284] | 144.34%
Fc1ccc(-c2cc(CC3(NCc4ccc5c(c4)OCO5)COC3)no2)cc1 [CBK289654] | 101.924%
CCN1CCN(C(=O)c2cc(C)[nH]n2)CC1 [CBK200377] | 118.493%
COc1ccc(CN(Cc2ccsc2)[C@@H]2COC[C@H]2c2ccc(F)cc2)cc1 [CBK286485] | 74.7867%
CC1(C)CC(N(Cc2ccccc2)Cc2ncc[nH]2)CC(C)(C)N1 [CBK283179] | 103.87%
